Measurements taken from article PMC6152322, “Synthesis and Evaluation of New Oxadiazole, Thiadiazole, and Triazole Derivatives as Potential Anticancer Agents Targeting MMP-9” (Molecules : A Journal of Synthetic Chemistry and Natural …, 2017).

Experiments:
[1] = tested on: A549 human lung adenocarcinoma cell line; assay: XTT cytotoxicity assay on A549 cells; assay type: cell-based; conditions: SI = IC50 for NIH/3T3 / IC50 for A549 × 100; >value taken as the value itself
Description: (§1) NIH/3T3 Mouse embryonic fibroblast (ATCC® CRL-1658™, American Type Culture Collection (ATCC), Manassas, VA, USA), A549 human lung adenocarcinoma (ATCC® CCL-185™, American Type Culture Collection (ATCC), Manassas, VA, USA) and C6 rat glioma (ATCC® CCL-107™, American Type Culture Collection (ATCC), Manassas, VA, USA) cell lines were used for cytotoxicity tests. NIH/3T3 cell line was used to investigate the selectivity of the compounds, whereas other cell lines were used to determine anticancer activity. All cell lines were incubated according to the instructions of the supplier at 37 °C in a humidified atmosphere of 95% air and 5% CO2. NIH/3T3, A549 and C6 cells were seeded at 1 × 10^4 cells into each well of 96-well plate. After 24 h of incubating period, the culture mediums were removed and compound was added to culture medium at 500–3.9 μg/mL doses with a dilution factor of 2 (3.9, 7.8, 15.6, 31.2, 62.5, 125, 250, 500 μg/mL). After 24 h of incubation, XTT (2,3-bis(2-methoxy-4-nitro-5-sulfophenyl)-2H-tetrazolium-5-carboxanilide) assay was performed using the In Cytotox-XTT 1 Parameter Cytotoxicity Kit (Xenometrix, Allschwil, Switzerland) as previously described. […] All experiments were done in quadruplicates at three different time points, and the results were given as Mean ± standard deviation. Cisplatin was used as a positive control. The stock solutions of the compounds were prepared in dimethyl sulfoxide (DMSO) and further dilutions were made with fresh culture medium. The final DMSO concentration was under 0.1%.
(§2) Inhibition%=100−( corrected mean OD sample/corrected mean OD solvent controls ×100)

C6 rat glioma cell line = assay: XTT cytotoxicity assay on C6 cells; assay type: cell-based; conditions: SI = IC50 for NIH/3T3 / IC50 for C6 × 100; >value taken as the value itself
Description: as §1, §2

Row | SMILES | SI Values A549 [1] | SI Values C6 (C6 rat glioma cell line)
1 | N.N.[Cl][Pt][Cl] [Cisplatin, reference compound] | 1190 | 1617.476
2 | O=C(CSc1nnc(Nc2ccc(Cl)cc2Cl)s1)N1CCOCC1 [Compound 1, 2-{[5-((2,4-Dichlorophenyl)amino)-1,3,4-thiadiazol-2-yl]thio}-1-morpholinoethan-1-one] | 24.959 | 240.625
3 | Nn1c(COc2ccccc2)nnc1SCC(=O)N1CCOCC1 [Compound 2, 2-{[4-Amino-5-(phenoxymethyl)-4H-1,2,4-triazol-3-yl]thio}-1-morpholinoethan-1-one] | 98.673 | 98.673
4 | COc1ccc(OCc2nnc(SCC(=O)N3CCOCC3)o2)cc1 [Compound 3, 2-{[5-((4-Methoxyphenoxy)methyl)-1,3,4-oxadiazol-2-yl]thio}-1-morpholinoethan-1-one] | 100 | 270.018
5 | O=C(CSc1nnc(Nc2ccc(Cl)cc2Cl)s1)NCc1ccc2c(c1)OCO2 [Compound 5, N-(1,3-Benzodioxol-5-ylmethyl)-2-{[5-((2,4-dichlorophenyl)amino)-1,3,4-thiadiazol-2-yl]thio}acetamide] | 100 | 100
6 | Nn1c(COc2ccccc2)nnc1SCC(=O)NCc1ccc2c(c1)OCO2 [Compound 6, 2-{[4-Amino-5-(phenoxymethyl)-4H-1,2,4-triazol-3-yl]thio}-N-(1,3-benzodioxol-5-ylmethyl)acetamide] | 100 | 100
7 | COc1ccc(OCc2nnc(SCC(=O)NCc3ccc4c(c3)OCO4)o2)cc1 [Compound 7, N-(1,3-Benzodioxol-5-ylmethyl)-2-{[5-((4-methoxyphenoxy)methyl)-1,3,4-oxadiazol-2-yl]thio}acetamide] | 8.576 | 8.576
8 | O=C(CSc1nnc(COc2ccc3c(c2)CCCC3)o1)NCc1ccc2c(c1)OCO2 [Compound 8, N-(1,3-Benzodioxol-5-ylmethyl)-2-{[5-(((5,6,7,8-tetrahydronaphthalen-2-yl)oxy)methyl)-1,3,4-oxadiazol-2-yl]thio}acetamide] | 883.2 | 805.8 and 805.839
9 | O=C(CSc1nnc(-c2ccccc2)o1)NCc1ccc2c(c1)OCO2 [Compound 9, N-(1,3-Benzodioxol-5-ylmethyl)-2-[(5-phenyl-1,3,4-oxadiazol-2-yl)thio]acetamide] | 254.441 | 565.6 and 565.605

“And” between values parts separate entries of the source, which are not always exact repeats. Identical values can stand only once.
